Data as given in PubChem BioAssay AID743121 (NCATS, 2013).
The whole screen tested about 26,000 reagents; shown is a part drawn at random. Over the whole deposit, 167 (0.63%) are marked active. 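Calls are per gene from RSA p-values that are not deposited; an individual active-marked siRNA can sensitise only weakly.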 Reagents against one gene are numbered here. Not all columns of the deposit are shown.

Screen: 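Knock-downs that sensitise breast cancer cells to camptothecin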 (primary screen)
Cells: MDA-MB-231 cells, a human breast cancer line
Reagent: single siRNA against human genes, 20 nM siRNA (0.8 pmol per well)
Time to read-out: 120 h (drug added 48 h after transfection, read 72 h later)
Conditions: camptothecin 20 nM (about EC30) for 72 h; vehicle 0.1% DMSO in parallel plates
Detection: 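CellTiter-Glo ATP signal, scaled to control siRNA as percent viability; sensitisation given as log2 of untreated divided by camptothecin-treated viability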
Direction: log2 vehicle/camptothecin viability: higher = stronger sensitisation to camptothecin; viability with camptothecin: higher = more viable cells
Units: viability with camptothecin in % of control
Call rule: 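Each gene scored by redundant siRNA activity (RSA) over its individual siRNA ratios; a gene is called active at p < 0.001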

OR52A1 #1: log2 vehicle/camptothecin viability = -0.0928; viability with camptothecin = 92.8; Outcome = inactive
OR52A1 #2: log2 vehicle/camptothecin viability = -0.0137; viability with camptothecin = 114; Outcome = inactive
OR52A1 #3: log2 vehicle/camptothecin viability = 0.276; viability with camptothecin = 48.7; Outcome = inactive
OR52A1 #4: log2 vehicle/camptothecin viability = -0.358; viability with camptothecin = 52.6; Outcome = inactive
CES3 #1: log2 vehicle/camptothecin viability = -0.314; viability with camptothecin = 65.1; Outcome = inactive
CES3 #2: log2 vehicle/camptothecin viability = 0.148; viability with camptothecin = 66.5; Outcome = inactive
CES3 #3: log2 vehicle/camptothecin viability = -0.414; viability with camptothecin = 54.3; Outcome = inactive
CES3 #4: log2 vehicle/camptothecin viability = 0.587; viability with camptothecin = 15.4; Outcome = inactive
RFPL1 #1: log2 vehicle/camptothecin viability = -0.0182; viability with camptothecin = 99; Outcome = inactive
RFPL1 #2: log2 vehicle/camptothecin viability = -0.098; viability with camptothecin = 104; Outcome = inactive
RFPL1 #3: log2 vehicle/camptothecin viability = -0.266; viability with camptothecin = 99.8; Outcome = inactive
RFPL1 #4: log2 vehicle/camptothecin viability = 1.89; viability with camptothecin = 26.3; Outcome = inactive
RFPL1 #5: log2 vehicle/camptothecin viability = 0.272; viability with camptothecin = 70.9; Outcome = inactive
EPB41 #1: log2 vehicle/camptothecin viability = 0.0836; viability with camptothecin = 73.8; Outcome = inactive
EPB41 #2: log2 vehicle/camptothecin viability = -0.227; viability with camptothecin = 94.8; Outcome = inactive
EPB41 #3: log2 vehicle/camptothecin viability = 0.187; viability with camptothecin = 34.3; Outcome = inactive
EPB41 #4: log2 vehicle/camptothecin viability = 0.0513; viability with camptothecin = 85.7; Outcome = inactive

Quoted from above (2 entries):
CES3 #4: log2 vehicle/camptothecin viability = 0.587; viability with camptothecin = 15.4; Outcome = inactive
RFPL1 #1: log2 vehicle/camptothecin viability = -0.0182; viability with camptothecin = 99; Outcome = inactive
